Source: paper PMC9935853
No constants are given. Whether binding was seen depends on the method and setting. Some results given as binding are weak or reduced against the parent protein; the word gives no strength. For some assays here: Tags and fused reporters may be left off the sequences shown.

T1: S. pombe cytochrome c oxidase subunit Cox3 (S. pombe) (UniProt P14575)
T1 sequence: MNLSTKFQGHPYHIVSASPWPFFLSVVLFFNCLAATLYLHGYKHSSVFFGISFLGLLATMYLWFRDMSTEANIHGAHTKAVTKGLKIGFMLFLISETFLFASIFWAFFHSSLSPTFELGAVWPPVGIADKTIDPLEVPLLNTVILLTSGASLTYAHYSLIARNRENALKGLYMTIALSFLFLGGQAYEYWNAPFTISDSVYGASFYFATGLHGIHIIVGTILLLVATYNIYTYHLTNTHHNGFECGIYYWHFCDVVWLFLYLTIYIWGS

T2: S. pombe cytochrome c oxidase subunit Cox5 with a C-terminal twin-strep tag (S. pombe) (UniProt O74988)
T2 sequence: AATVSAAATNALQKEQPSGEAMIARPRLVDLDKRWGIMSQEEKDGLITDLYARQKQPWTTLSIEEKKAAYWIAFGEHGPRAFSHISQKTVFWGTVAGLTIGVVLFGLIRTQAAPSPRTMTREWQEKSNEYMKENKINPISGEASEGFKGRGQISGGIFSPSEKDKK

B1: respiratory supercomplex factor 2 (Rcf2) of S. pombe (protein, UniProt Q9P3B2 1-242)
chain: MKLSTPEEVKAFNRNTYSALFKGALVGSSLGIAGWLIGNRYSAGFRRLPFSLKSWLVIGSGSGASIIFADKAGLKFEAERYGKFDQIDYSTKGLPWNQRALYYFNEHKWPIILGTWASTMGLSLYAASRNRYDTAPQKLIQARMYAQGVTVVVLLGSVYLSTLANRLEPLEREVLVTDPSNPTKLVAFKQRKERYPGELQWEVLVSQDEERLRKLNLPLREPHGSTGPMSTPTPALNSSRSA
B2: S. pombe cytochrome c oxidase subunit Cox7 (protein, UniProt G2TRP5 1-59)
chain: MKNTIVQQQRFLQSIHKPTYLQRPGSFALVYPYYAVMAGLGLYSLYASGRVIFGKKDAF
B3: S. pombe cytochrome c oxidase subunit Cox4 (protein, UniProt P79010 34-164)
chain: NEQNVVKAAAQELANAKEPSDLIGPGGRDGEVPTDLEQATGLERYELLSELSGRDAFDMKPLDASRKGTLTDPIMVTSLDPYRHIGCTGSPSGSHNLIWMTVYKDKLRRCPECGSVYKLKFMGDPNAEHSH
B4: S. pombe cytochrome c oxidase subunit Cox3 (protein, UniProt P14575 1-269)
chain: T1 sequence
B5: S. pombe cytochrome c oxidase subunit Cox2 (protein, UniProt P21534 1-248)
chain: MLFFNSILNDAPSSWALYFQDGASPSYLGITHLNDYLMFYLTFIFIGVIYAICKAVIEYNYNSHPIAAKYTTHGSIVEFIWTLIPALILILVALPSFKLLYLLDEVQKPSMTVKAIGRQWFWSYELNDFVTNENEPVSFDSYMVPEEDLEEGSLRQLEVDNRLVLPIDTRIRLILTSGDVIHSWAVPSLGIKCDCIPGRLNQVSLSIDREGLFYGQCSELCGVLHSSMPIVVQGVSLEDFLAWLEENS
B6: S. pombe cytochrome c oxidase subunit Cox12 (protein, UniProt O94581 1-86)
chain: MSEQEDQEAPKQFTFGTVGFDARFPNTNQTKHCFQSYIDYFRCIKAKGEDFVPCKQFWHAYQSLCPMEWVERWDEQRENGTFPAPI
B7: S. pombe cytochrome c oxidase subunit Cox13 (protein, UniProt O74471 32-130)
chain: SNEAKVNWLEEVQAEEEHAKRSSEFWKKVTYYIGGPALILASANAYYIYCKHQEHAKHVEDTDPGYSFENLRFKKYPWGDGSKTLFWNDKVNHLKKDDE

Biological target: T1, S. pombe cytochrome c oxidase subunit Cox3 (S. pombe)
Experiment: cryo-EM structure; CIV purified through Cox5-2xstrep in GDN (25 mM KH2PO4 pH 8.0, 150 mM KCl, 0.01% GDN), ~4 mg/ml on grids; map at 3.4 Å overall

binding, binds:
B1

Biological target: T2, S. pombe cytochrome c oxidase subunit Cox5 with a C-terminal twin-strep tag (S. pombe)
Experiment: as above

binding, binds:
B2
B3
B4
B5
B6
SSSHSAPKPGSTIPFYINKKPLPTLLYFGTFGVIFSIPFIVVKYHNRNL (peptide, UniProt Q9P4W1 18-66) [S. pombe cytochrome c oxidase subunit Cox8]
B7
